Source: patent US20040262585A1 (priority 2004, published 2004)
HELM strings list residues between dots; [ac] is acetyl, [am] amide, other brackets name non-standard units.

Experiment: general procedure: Fmoc solid-phase peptide synthesis; 1,4-diaminobutane trityl PS resin (1.5 mmol/g); TentaGel PAMAM and tris dendrimer resins; DIC/HOBt
Conditions: whole synthesis; for isolated yield: scale of the general procedure 0.3 mmol, 0.33 mmol
[1] = from 1,4-diaminobutane trityl resin

Substance	isolated mass [mg]	isolated yield [1] [%]	isolated yield (from 1,4-diaminobutane resin) [%]	isolated yield (from TGT alcohol resin) [%]
SO3Cy5-Tyr-Val-Ala-Asp-Ala-Pro-Val-Lys-diaminobutane peptide	4.3	74		
SO3Cy5-Tyr-Val-Ala-Asp-Ala-Pro-Val-Lys-tris dendrimer peptide	2.0		20	
PEPTIDE1{[FITC].A.[Lys(Boc)].L.A}|PEPTIDE2{[FITC].A.[Lys(Boc)].L.A}|CHEM1{[PAMAMcore]}$PEPTIDE1,CHEM1,5:R2-1:R1|PEPTIDE2,CHEM1,5:R2-1:R2$$$V2.0	7.4			9
FITC-Ala-Lys(Boc)-Leu-Ala-diaminobutane peptide	19.6	54		
